Source: article doi:10.1101/2025.02.06.636899
No constants are given. Whether binding was seen depends on the method and setting. In cells and extracts the contact can be indirect. Some results given as binding are weak or reduced against the parent protein; the word gives no strength.

What was measured:
Assay in all cases: co-IP
HA-WT-TDP-43 (human) = HA-WT-TDP-43 (human) (UniProt Q13148)
HA-RAD23A = HA-RAD23A (UniProt P54725)
[1] = target: HA-tagged Q331K human TDP-43 (human) (UniProt Q13148)

binding (HA-WT-TDP-43 (human)): binds
binding (HA-RAD23A): no binding
binding [1]: binds
B1: Ubiquitin specific peptidase 13 (USP13) (enzyme, UniProt Q92995 1-863)
chain: MQRRGALFGMPGGSGGRKMAAGDIGELLVPHMPTIRVPRSGDRVYKNECAFSYDSPNSEGGLYVCMNTFLAFGREHVERHFRKTGQSVYMHLKRHVREKVRGASGGALPKRRNSKIFLDLDTDDDLNSDDYEYEDEAKLVIFPDHYEIALPNIEELPALVTIACDAVLSSKSPYRKQDPDTWENELPVSKYANNLTQLDNGVRIPPSGWKCARCDLRENLWLNLTDGSVLCGKWFFDSSGGNGHALEHYRDMGYPLAVKLGTITPDGADVYSFQEEEPVLDPHLAKHLAHFGIDMLHMHGTENGLQDNDIKLRVSEWEVIQESGTKLKPMYGPGYTGLKNLGNSCYLSSVMQAIFSIPEFQRAYVGNLPRIFDYSPLDPTQDFNTQMTKLGHGLLSGQYSKPPVKSELIEQVMKEEHKPQQNGISPRMFKAFVSKSHPEFSSNRQQDAQEFFLHLVNLVERNRIGSENPSDVFRFLVEERIQCCQTRKVRYTERVDYLMQLPVAMEAATNKDELIAYELTRREAEANRRPLPELVRAKIPFSACLQAFSEPENVDDFWSSALQAKSAGVKTSRFASFPEYLVVQIKKFTFGLDWVPKKFDVSIDMPDLLDINHLRARGLQPGEEELPDISPPIVIPDDSKDRLMNQLIDPSDIDESSVMQLAEMGFPLEACRKAVYFTGNMGAEVAFNWIIVHMEEPDFAEPLTMPGYGGAASAGASVFGASGLDNQPPEEIVAIITSMGFQRNQAIQALRATNNNLERALDWIFSHPEFEEDSDFVIEMENNANANIISEAKPEGPRVKDGSGTYELFAFISHMGTSTMSGHYICHIKKEGRWVIYNDHKVCASERPPKDLGYMYFYRRIPS
